No constants are given. Whether binding was seen depends on the method and setting. In cells and extracts the contact can be indirect. A yes stands for co-enrichment or nearness to the bait. Other partners may have been found.
How the values were obtained:
GST-XIAP = GST-XIAP (UniProt P98170); test: affinity purification with mass spectrometry
GST-USP7 = GST-USP7 (UniProt Q93009); test: affinity purification with mass spectrometry

Protein sequences, listed by entry. Tags and fused reporters are not part of them.
UniProt P98170: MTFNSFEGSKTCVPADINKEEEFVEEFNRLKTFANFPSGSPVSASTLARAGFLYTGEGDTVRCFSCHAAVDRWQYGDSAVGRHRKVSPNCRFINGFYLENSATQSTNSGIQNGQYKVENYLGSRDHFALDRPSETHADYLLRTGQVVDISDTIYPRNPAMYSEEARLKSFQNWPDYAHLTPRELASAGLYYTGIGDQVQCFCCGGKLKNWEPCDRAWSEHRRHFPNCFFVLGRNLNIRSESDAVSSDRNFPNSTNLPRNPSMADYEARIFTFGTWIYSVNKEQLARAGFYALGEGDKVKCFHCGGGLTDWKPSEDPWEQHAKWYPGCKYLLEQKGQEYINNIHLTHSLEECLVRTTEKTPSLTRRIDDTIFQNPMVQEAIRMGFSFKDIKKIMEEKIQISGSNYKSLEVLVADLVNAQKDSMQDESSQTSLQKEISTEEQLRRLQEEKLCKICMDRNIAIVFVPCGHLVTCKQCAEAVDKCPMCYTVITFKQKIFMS
UniProt Q93009: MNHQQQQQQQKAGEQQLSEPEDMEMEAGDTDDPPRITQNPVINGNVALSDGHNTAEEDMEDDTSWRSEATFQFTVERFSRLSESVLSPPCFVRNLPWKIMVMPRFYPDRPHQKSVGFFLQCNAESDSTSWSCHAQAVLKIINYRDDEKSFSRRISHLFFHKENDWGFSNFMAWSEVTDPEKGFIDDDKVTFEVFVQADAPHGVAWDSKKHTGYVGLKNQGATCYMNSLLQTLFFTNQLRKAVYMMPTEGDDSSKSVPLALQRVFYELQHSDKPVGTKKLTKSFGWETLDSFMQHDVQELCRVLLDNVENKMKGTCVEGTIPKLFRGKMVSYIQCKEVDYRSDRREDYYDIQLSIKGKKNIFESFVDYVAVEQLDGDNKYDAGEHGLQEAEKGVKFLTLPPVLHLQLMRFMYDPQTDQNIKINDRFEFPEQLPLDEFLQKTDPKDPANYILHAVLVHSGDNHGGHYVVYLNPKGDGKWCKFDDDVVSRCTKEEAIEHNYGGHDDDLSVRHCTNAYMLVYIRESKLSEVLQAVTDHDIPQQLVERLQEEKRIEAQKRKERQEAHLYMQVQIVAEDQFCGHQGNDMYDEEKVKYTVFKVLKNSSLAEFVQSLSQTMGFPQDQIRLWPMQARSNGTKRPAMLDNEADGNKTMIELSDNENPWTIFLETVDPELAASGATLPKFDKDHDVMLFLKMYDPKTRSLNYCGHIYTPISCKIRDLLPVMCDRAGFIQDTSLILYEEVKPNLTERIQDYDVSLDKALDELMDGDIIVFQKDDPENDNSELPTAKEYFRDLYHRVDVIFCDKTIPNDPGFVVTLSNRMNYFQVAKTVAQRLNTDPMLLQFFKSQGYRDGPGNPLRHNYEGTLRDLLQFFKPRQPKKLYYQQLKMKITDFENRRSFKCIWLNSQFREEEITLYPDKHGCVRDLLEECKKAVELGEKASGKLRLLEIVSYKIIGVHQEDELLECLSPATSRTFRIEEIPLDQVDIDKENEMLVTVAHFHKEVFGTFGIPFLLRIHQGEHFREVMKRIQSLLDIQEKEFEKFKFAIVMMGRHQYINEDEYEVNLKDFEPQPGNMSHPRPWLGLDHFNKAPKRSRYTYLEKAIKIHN

Substance | binding (GST-XIAP) | binding (GST-USP7)
endogenous USP7 of HEK cells (from UniProt Q93009 1-1102) (enzyme) | binds | –
endogenous XIAP (X-linked IAP) of HEK cells (from UniProt P98170 1-497) | – | binds

From doi:10.1101/2021.08.12.456108
